One assay concerns the target Arf1^Q71L-RlucII (human) (UniProt P84077). As to the kind of experiment: FRET or BRET; BRET^2 in live HEK293T cells (γ/µ1 also in Arf1-KO cells; some panels with Brefeldin A 10 µM 15 min or co-expressed Arf1-HA forms): low constant amount of the RlucII donor, increasing amounts of the GFP10 acceptor; coelenterazine 400a 5 µM; BRET50 and BRETmax from a one-site saturation fit. Background: BRET reads energy transfer from a luciferase to a nearby fluorophore.

Amino acid sequences for entries named in this document (tags omitted). A change or cut given only in a name is not applied to a line headed by its entry.
UniProt P84077: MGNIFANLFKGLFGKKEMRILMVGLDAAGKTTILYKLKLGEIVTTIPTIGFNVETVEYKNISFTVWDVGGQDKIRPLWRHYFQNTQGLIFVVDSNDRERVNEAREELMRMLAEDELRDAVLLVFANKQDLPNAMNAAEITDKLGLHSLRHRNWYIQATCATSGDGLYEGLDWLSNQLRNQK
UniProt O43747: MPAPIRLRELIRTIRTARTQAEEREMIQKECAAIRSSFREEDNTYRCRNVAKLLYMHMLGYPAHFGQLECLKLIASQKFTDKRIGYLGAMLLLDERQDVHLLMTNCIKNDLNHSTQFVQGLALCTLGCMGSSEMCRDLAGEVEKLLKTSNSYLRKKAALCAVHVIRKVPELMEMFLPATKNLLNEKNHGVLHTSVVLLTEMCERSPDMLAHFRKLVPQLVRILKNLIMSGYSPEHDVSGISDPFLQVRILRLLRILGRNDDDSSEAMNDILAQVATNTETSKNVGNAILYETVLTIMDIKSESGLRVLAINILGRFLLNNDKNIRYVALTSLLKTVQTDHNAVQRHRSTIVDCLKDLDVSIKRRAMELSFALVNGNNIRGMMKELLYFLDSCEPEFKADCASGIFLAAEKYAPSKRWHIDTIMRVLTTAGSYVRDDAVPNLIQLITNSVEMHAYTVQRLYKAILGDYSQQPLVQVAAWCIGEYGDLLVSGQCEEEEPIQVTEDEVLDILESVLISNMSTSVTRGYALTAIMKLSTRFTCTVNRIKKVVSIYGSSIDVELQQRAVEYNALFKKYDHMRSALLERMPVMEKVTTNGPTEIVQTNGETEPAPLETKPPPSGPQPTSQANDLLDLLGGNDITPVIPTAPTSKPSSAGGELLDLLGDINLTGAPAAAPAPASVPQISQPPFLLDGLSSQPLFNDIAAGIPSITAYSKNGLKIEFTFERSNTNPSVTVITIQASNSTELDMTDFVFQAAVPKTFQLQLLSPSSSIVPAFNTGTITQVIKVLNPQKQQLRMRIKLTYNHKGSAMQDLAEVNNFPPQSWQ

Assay [1] concerns the target γ^L68D,L71D-GFP10 (human) (UniProt O43747). The assay can be described thus: co-IP; HEK293T cells transfected, lysed in TNE buffer (150 mM NaCl, 10 mM Tris-HCl pH 7.5, 5 mM EDTA, 0.5% Triton X-100); GFP10 fusion precipitated with anti-GFP antibody and protein-G sepharose overnight at 4 °C; partner detected by Western blot (anti-γ or anti-RLuc). On the technique in general: A western blot detects proteins with antibodies after separation by electrophoresis.

No constants are given. Whether binding was seen depends on the method and setting. Binding seen in cells or lysates may run through a third protein. For some assays here: Binding calls can cover weak binding; strength is not graded here. For some assays here: Where a sequence is shown, tags or fusion partners need not be part of it.

Consider γ^L68D,L71D-GFP10 (from UniProt O43747), for which the binding result with Arf1^Q71L-RlucII (human) was “no binding”.

B1: β1-GFP10 (AP-1 β1 subunit, wild type) (natural protein, human, UniProt Q10567 1-949, looked up)
chain: MTDSKYFTTTKKGEIFELKAELNSDKKEKKKEAVKKVIASMTVGKDVSALFPDVVNCMQTDNLELKKLVYLYLMNYAKSQPDMAIMAVNTFVKDCEDPNPLIRALAVRTMGCIRVDKITEYLCEPLRKCLKDEDPYVRKTAAVCVAKLHDINAQLVEDQGFLDTLKDLISDSNPMVVANAVAALSEIAESHPSSNLLDLNPQSINKLLTALNECTEWGQIFILDCLANYMPKDDREAQSICERVTPRLSHANSAVVLSAVKVLMKFMEMLSKDLDYYGTLLKKLAPPLVTLLSAEPELQYVALRNINLIVQKRPEILKHEMKVFFVKYNDPIYVKLEKLDIMIRLASQANIAQVLAELKEYATEVDVDFVRKAVRAIGRCAIKVEQSAERCVSTLLDLIQTKVNYVVQEAIVVIKDIFRKYPNKYESVIATLCENLDSLDEPEARAAMIWIVGEYAERIDNADELLESFLEGFHDESTQVQLQLLTAIVKLFLKKPTETQELVQQVLSLATQDSDNPDLRDRGYIYWRLLSTDPVAAKEVVLAEKPLISEETDLIEPTLLDELICYIGTLASVYHKPPSAFVEGGRGVVHKSLPPRTASSESAESPETAPTGAPPGEQPDVIPAQGDLLGDLLNLDLGPPVSGPPLATSSVQMGAVDLLGGGLDSLMGDEPEGIGGTNFVAPPTAAVPANLGAPIGSGLSDLFDLTSGVGTLSGSYVAPKAVWLPAMKAKGLEISGTFTRQVGSISMDLQLTNKALQVMTDFAIQFNRNSFGLAPAAPLQVHAPLSPNQTVEISLPLSTVGSVMKMEPLNNLQVAVKNNIDVFYFSTLYPLHILFVEDGKMDRQMFLATWKDIPNENEAQFQIRDCPLNAEAASSKLQSSNIFTVAKRNVEGQDMLYQSLKLTNGIWVLAELRIQPGNPSCTDLELSLKCRAPEVSQHVYQAYETILKN
notes: β1 subunit of the adaptor protein complex 1 (AP-1), human; amplified by PCR minus the stop codon; also called β-GFP10; full-length β1-GFP10; source: HEK293T, transfected, in live cells (BRET), cell fractions and lysate (co-IP); not shown: GFP10, C-terminal, kept
As to B1, the binding result in assay [1] is reported as “binds”.

These data come from publication PMC5540999, “In vivo monitoring of the recruitment and activation of AP-1 by Arf1” (Scientific Reports, 2017).
